Experimental data from the supplement of paper PMC12067093, “Discovery and optimisation of a covalent ligand for TRIM25 and its application to targeted protein ubiquitination” (Chemical Science, 2025).
Some of the results follow.

Amino acid sequences for entries named in this document (tags omitted). A change or cut given only in a name is not applied to a line headed by its entry.
UniProt P35573: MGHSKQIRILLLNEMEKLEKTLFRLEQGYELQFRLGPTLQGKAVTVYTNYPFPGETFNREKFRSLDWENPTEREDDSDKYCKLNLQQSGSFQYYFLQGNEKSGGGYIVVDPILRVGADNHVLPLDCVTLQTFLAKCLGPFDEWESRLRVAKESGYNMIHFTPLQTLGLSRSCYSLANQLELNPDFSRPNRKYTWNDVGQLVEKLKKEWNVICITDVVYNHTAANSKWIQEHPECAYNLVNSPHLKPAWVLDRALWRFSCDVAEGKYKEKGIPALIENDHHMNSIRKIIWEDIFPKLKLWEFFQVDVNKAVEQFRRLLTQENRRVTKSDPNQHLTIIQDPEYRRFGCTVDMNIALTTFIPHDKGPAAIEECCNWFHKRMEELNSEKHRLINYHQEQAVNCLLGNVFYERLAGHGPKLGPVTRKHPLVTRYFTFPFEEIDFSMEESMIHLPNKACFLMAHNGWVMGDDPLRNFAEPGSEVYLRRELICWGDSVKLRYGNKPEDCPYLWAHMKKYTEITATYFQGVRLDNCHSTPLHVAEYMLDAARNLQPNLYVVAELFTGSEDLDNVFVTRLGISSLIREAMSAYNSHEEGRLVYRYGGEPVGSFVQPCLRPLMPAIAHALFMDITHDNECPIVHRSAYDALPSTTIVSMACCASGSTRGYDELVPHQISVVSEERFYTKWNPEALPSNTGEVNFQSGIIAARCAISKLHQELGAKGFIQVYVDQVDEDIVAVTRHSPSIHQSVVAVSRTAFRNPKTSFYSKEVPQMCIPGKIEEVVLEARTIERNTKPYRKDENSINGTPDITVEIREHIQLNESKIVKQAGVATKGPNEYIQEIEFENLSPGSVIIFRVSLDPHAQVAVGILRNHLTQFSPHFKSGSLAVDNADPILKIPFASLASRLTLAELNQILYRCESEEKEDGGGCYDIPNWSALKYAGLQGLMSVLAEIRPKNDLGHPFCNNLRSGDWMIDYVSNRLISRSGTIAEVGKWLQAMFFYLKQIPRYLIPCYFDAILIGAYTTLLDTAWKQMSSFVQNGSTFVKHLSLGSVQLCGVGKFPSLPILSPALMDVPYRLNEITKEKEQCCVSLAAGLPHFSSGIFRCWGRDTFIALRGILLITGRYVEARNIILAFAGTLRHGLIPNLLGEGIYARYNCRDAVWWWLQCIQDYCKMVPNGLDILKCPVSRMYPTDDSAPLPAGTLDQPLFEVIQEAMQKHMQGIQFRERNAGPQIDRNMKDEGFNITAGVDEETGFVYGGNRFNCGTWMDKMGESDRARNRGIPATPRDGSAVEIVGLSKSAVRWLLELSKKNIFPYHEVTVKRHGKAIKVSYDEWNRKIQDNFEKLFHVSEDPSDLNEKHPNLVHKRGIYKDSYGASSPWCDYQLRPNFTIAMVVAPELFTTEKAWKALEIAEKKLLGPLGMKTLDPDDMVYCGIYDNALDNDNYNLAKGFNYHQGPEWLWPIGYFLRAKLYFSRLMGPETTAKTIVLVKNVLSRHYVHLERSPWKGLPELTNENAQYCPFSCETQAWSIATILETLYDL
UniProt P54886: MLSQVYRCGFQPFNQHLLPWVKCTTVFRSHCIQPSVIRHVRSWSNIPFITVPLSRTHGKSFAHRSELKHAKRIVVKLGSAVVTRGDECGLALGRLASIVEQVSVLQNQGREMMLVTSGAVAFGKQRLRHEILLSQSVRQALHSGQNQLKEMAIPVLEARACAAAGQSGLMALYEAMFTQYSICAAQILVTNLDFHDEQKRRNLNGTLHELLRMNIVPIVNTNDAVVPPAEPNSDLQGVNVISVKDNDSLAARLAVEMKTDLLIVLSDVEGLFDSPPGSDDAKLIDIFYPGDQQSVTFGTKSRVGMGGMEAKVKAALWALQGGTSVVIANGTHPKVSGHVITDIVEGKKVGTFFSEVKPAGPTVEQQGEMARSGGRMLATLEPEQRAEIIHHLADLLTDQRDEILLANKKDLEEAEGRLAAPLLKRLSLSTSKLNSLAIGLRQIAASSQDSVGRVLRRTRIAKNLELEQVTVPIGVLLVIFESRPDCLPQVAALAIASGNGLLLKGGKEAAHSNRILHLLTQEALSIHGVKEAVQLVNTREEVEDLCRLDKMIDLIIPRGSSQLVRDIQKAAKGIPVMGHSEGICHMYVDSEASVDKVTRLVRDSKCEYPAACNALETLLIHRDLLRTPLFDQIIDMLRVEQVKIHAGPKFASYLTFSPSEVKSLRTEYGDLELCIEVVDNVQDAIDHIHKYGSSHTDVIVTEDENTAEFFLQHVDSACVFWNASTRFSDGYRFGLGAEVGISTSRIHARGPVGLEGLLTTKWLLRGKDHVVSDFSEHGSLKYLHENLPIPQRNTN
UniProt Q13155: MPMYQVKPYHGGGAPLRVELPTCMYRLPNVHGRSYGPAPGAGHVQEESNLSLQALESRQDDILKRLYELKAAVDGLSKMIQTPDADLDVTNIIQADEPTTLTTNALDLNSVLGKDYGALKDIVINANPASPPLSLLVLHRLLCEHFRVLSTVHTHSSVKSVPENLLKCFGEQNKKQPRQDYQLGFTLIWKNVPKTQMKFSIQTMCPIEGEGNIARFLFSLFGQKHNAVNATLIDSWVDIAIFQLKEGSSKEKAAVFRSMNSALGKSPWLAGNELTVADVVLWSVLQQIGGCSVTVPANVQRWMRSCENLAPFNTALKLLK
UniProt Q9UJX4, whole entry, looked up: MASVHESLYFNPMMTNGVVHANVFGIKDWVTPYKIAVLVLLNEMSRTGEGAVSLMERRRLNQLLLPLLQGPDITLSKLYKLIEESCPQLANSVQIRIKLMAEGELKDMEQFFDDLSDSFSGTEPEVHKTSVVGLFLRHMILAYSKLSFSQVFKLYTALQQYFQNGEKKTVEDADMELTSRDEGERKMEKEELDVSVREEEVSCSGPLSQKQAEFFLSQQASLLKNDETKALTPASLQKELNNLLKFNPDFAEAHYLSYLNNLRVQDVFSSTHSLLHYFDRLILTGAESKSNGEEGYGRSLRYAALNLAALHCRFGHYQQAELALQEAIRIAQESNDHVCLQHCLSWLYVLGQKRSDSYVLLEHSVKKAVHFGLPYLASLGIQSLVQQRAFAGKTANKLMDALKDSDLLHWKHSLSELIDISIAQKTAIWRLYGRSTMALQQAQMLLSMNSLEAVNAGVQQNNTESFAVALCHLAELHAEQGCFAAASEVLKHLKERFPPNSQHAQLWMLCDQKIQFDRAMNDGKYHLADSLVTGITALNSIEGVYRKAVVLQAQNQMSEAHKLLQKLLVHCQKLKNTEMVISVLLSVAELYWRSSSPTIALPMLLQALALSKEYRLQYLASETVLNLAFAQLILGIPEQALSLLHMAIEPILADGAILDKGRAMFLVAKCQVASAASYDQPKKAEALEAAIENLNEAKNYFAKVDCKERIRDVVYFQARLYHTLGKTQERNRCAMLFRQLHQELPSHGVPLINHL
UniProt Q9UKV5, whole entry, looked up: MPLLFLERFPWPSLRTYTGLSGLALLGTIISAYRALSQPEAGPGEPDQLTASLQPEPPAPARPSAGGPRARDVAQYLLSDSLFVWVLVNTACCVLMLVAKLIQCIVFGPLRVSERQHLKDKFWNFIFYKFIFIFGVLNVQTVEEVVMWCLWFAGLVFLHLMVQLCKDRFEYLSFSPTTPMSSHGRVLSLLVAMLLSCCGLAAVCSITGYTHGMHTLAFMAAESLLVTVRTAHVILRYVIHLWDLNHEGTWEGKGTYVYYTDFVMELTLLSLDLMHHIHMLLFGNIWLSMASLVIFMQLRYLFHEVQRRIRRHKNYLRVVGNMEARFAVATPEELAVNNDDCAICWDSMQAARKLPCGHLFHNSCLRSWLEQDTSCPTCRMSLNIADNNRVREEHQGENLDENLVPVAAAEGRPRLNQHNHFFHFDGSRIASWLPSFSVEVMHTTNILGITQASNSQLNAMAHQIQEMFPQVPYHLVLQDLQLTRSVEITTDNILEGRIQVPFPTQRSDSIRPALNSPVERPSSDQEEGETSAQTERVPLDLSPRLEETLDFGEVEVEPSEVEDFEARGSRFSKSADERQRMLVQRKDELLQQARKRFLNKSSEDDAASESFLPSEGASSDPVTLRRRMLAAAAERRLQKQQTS
UniProt Q9NYG5, whole entry, looked up: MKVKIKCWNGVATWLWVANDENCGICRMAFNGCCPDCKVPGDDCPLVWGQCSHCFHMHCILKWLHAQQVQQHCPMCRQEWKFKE
UniProt P30837: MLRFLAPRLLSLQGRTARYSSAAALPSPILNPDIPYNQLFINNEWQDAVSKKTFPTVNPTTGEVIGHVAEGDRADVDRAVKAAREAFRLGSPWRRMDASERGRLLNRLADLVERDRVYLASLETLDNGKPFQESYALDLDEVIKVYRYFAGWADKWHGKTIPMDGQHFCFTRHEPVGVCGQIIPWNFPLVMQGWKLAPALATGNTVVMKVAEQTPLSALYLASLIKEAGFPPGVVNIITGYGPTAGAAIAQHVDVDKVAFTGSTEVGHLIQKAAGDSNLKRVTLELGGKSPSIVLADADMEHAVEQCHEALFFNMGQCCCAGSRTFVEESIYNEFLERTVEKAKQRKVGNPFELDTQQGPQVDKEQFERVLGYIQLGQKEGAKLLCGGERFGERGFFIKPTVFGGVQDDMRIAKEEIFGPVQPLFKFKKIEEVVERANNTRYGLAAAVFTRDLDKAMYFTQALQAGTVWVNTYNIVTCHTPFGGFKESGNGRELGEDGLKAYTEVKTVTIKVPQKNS
UniProt Q13686: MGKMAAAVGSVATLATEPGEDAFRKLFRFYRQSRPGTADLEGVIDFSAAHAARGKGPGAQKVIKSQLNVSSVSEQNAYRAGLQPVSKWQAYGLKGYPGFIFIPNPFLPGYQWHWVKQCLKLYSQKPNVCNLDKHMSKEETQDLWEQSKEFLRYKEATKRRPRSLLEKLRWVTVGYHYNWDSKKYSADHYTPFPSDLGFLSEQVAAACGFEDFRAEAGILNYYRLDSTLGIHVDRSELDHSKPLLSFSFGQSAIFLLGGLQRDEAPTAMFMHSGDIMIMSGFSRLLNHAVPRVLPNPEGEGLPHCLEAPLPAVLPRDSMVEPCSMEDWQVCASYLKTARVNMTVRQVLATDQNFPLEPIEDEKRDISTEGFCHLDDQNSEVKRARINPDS
UniProt O00116: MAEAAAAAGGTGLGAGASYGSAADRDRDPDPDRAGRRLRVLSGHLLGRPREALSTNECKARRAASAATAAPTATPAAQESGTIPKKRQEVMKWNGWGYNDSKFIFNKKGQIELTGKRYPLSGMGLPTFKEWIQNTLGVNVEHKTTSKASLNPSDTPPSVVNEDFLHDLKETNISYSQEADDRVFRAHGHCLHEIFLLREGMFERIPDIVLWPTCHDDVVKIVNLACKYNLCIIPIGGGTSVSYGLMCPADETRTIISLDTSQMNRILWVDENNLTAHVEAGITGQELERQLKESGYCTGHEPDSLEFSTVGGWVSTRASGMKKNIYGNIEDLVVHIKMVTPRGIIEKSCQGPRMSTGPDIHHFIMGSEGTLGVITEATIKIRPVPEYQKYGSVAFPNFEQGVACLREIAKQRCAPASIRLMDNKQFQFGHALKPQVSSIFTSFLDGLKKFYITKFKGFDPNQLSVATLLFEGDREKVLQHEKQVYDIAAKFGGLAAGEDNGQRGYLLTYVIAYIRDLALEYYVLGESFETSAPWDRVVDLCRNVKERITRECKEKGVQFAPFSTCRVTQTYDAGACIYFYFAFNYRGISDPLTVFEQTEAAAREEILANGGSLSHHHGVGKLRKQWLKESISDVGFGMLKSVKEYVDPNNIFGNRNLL
UniProt P04075: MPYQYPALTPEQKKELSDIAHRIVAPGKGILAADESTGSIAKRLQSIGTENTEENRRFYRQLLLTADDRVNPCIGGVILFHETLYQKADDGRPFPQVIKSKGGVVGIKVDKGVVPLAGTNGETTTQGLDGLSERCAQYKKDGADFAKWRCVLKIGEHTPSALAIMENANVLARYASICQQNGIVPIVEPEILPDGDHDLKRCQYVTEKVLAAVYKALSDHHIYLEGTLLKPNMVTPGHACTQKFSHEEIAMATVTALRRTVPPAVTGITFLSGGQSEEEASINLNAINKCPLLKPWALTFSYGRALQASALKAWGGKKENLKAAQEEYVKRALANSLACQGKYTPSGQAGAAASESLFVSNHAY
UniProt P49189: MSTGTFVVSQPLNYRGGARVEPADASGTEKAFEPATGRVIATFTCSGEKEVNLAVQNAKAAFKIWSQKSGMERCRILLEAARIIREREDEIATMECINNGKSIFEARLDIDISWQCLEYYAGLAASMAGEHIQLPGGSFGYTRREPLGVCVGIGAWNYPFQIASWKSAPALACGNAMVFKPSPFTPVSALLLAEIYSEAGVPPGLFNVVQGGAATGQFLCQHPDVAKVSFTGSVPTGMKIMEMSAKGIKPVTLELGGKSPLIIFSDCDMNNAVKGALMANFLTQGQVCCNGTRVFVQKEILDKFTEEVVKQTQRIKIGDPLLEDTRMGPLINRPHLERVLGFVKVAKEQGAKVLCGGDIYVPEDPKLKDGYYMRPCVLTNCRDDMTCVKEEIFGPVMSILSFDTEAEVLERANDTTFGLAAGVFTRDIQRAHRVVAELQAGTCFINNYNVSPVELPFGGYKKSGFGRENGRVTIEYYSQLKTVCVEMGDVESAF

Compound: CC1Cc2ccccc2N1C(=O)C1CCCN(C1)C(=O)CCl (mixture of isomers) [TRIM25 ligand 11 (diastereomer mixture)]
Test: probe-labelled cysteine peptide fold change vs DMSO (competition) (log2 fold change); higher = less target engagement (more negative = stronger competition)
Conditions: THP-1, incubation time: 4 h
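Further: competitive chemoproteomic profiling in live THP-1 cells with an iodoacetamide desthiobiotin (IA-DTB) probe, comparing probe-labelled peptide intensities in compound-treated cells against DMSO-treated controls.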

Target | probe-labelled cysteine peptide fold change (10 µM) | probe-labelled cysteine peptide fold change (50 µM)
AKR1C3_P42330_242_WVDPNSPVLLEDPVLCALAK (UniProt P42330) | 0.0488 | -0.0816
AGL_P35573_399_LINYHQEQAVNCLLGNVFYER (UniProt P35573) | 0.0949 | 0.00508
ALAS1_P13196_544_NTEVCDELMSR (UniProt P13196) | -0.0844 | 0.0505
ALDH18A1_P54886_88_GDECGLALGR (UniProt P54886) | -0.0756 | -0.0207
ALDH18A1_P54886_674_TEYGDLELCIEVVDNVQDAIDHIHK (UniProt P54886) | 0.122 | 0.0867
AGMAT_Q9BSE5_216_CVDEGLLDCKR (UniProt Q9BSE5) | -0.0312 | -0.0253
AIMP2_Q13155_306_SCENLAPFNTALK (UniProt Q13155) | -0.114 | -0.131
ANAPC1_Q9H1A4_437_VFITSDLCGQK (UniProt Q9H1A4) | 0.0148 | 0.0684
AMDHD2_Q9Y303_261_CIFYGMIADGTHTNPAALR (UniProt Q9Y303) | -0.00488 | 0.102
ANAPC5_Q9UJX4_203_EEEVSCSGPLSQK (UniProt Q9UJX4) | 0.0518 | -0.117
AKR1A1_P14550_187_QIDDILSVASVRPAVLQVECHPYLAQNELIAHCQAR (UniProt P14550) | 0.15 | 0.139
AMFR_Q9UKV5_356+364_KLPCGHLFHNSCLR (UniProt Q9UKV5) | 0.166 | -0.173
AKR1A1_P14550_134_NADGTICYDSTHYK (UniProt P14550) | 0.0816 | -0.0691
AKAP8_O43823_395_IQFACSVCK (UniProt O43823) | -0.0931 | 0.0541
ALKBH5_Q6P6C2_378_SYESSEDCSEAAGSPARK (UniProt Q6P6C2) | -0.239 | -0.147
AKR1B1_P15121_200_LIQYCQSK (UniProt P15121) | -0.018 | -0.0644
AHNAK_Q09666_1900_LEGDLTGPSVGVEVPDVELECPDAK (UniProt Q09666) | 0.0611 | 0.146
AGL_P35573_259_FSCDVAEGK (UniProt P35573) | 0.119 | 0.206
AGL_P35573_528_LDNCHSTPLHVAEYMLDAAR (UniProt P35573) | 0.0558 | -0.445
AKAP17A_Q02040_17_AAATIVHDTSEAVELCPAYGLYLK (UniProt Q02040) | 0.583 | 0.399

Target | probe-labelled cysteine peptide fold change (10 µM) | probe-labelled cysteine peptide fold change (50 µM)
AHCYL1_O43865_293_QKFDNLYCCR (UniProt O43865) | -0.0935 | -0.0937
ANAPC11_Q9NYG5_73_WLHAQQVQQHCPMCR (UniProt Q9NYG5) | 0.149 | 0.137
ALDH1B1_P30837_169_TIPMDGQHFCFTR (UniProt P30837) | -0.0255 | 0.0642
ALKBH1_Q13686_304_VLPNPEGEGLPHCLEAPLPAVLPR (UniProt Q13686) | 0.0258 | -0.445
AKAP9_Q99996_2877_AVIQCLR (UniProt Q99996) | -0.0679 | 0.072
AGPS_O00116_190_AHGHCLHEIFLLR (UniProt O00116) | 0.146 | 0.0844
ALOX5_P09917_265_LPVTTEMVECSLER (UniProt P09917) | -0.0778 | -0.088
AIG1_Q9NVV5_6_MALVPCQVLR (UniProt Q9NVV5) | -0.104 | 0.301
AK2_P54819_40+42_LAENFCVCHLATGDMLR (UniProt P54819) | -0.0303 | 0.0733
ALDOA_P04075_202_RCQYVTEK (UniProt P04075) | 0.0665 | 0.183
AK2_P54819_92_NLETPLCK (UniProt P54819) | -0.0944 | -0.0953
ALCAM_Q13740_313_CSLIDKK (UniProt Q13740) | -0.0402 | 0.107
AKR1A1_P14550_46_HIDCAAIYGNEPEIGEALKEDVGPGK (UniProt P14550) | -0.539 | -0.46
ANAPC11_Q9NYG5_76_WLHAQQVQQHCPMCR (UniProt Q9NYG5) | -0.122 | 0.153
ALDH9A1_P49189_443_VVAELQAGTCFINNYNVSPVELPFGGYKK (UniProt P49189) | -0.0178 | 0.0155
ALDH9A1_P49189_484_TVCVEMGDVESAF (UniProt P49189) | -0.194 | -0.204
AGPS_O00116_226_IVNLACK (UniProt O00116) | 0.221 | 0.311
AK2_P54819_42_LAENFCVCHLATGDMLR (UniProt P54819) | -0.0797 | 0.0844
ALDOA_P04075_73_QLLLTADDRVNPCIGGVILFHETLYQK (UniProt P04075) | -0.0181 | -0.162
